The text below walks through data of paper PMC3921201.

This assay concerns the target T1, EGFP fusion of mouse PDZ-K1 (NHERF3) (mouse) (UniProt Q9JIL4).
T1 sequence: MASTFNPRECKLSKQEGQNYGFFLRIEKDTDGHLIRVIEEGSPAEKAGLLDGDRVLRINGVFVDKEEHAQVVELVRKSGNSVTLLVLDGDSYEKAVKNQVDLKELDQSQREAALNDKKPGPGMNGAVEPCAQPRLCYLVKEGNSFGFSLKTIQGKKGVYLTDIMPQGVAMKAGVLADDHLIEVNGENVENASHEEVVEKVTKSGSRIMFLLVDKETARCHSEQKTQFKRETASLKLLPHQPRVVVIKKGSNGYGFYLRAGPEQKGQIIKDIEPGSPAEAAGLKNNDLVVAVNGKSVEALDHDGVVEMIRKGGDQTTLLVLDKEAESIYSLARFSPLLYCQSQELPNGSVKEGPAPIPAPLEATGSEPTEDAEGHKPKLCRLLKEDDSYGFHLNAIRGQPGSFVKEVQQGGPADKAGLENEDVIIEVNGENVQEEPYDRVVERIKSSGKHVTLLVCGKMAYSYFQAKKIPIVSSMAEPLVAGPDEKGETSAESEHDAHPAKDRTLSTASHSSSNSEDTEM
The assay is described as follows: co-IP; mRFP-tagged SSTR5 coexpressed with GFP-tagged PDZ proteins; lysis in RIPA buffer; precipitation with GFP-trap beads, 2 h at 4°C; Western blot. (Immunoblotting shows a protein as a band on a membrane.)

No constants are given. Whether binding was seen depends on the method and setting. Binding seen in cells or lysates may run through a third protein. Some entries that bind do so weakly or less than the wild type. Tags and fused reporters may be left off the sequences shown.

B1: mRFP-tagged mouse somatostatin receptor subtype 5 (wild type) (receptor, UniProt O08858 1-362)
chain: MEPLSLTSTPSWNASAASSSSHNWSLVDPVSPMGARAVLVPVLYLLVCTVGLGGNTLVIYVVLRYAKMKTVTNVYILNLAVADVLFMLGLPFLATQNAVSYWPFGSFLCRLVMTLDGINQFTSIFCLMVMSVDRYLAVVHPLRSARWRRPRVAKLASAAVWVFSLLMSLPLLVFADVQEGWGTCNLSWPEPVGLWGAAFITYTSVLGFFGPLLVICLCYLLIVVKVKAAGMRVGSSRRRRSERKVTRMVVVVVLVFVGCWLPFFIVNIVNLAFTLPEEPTSAGLYFFVVVLSYANSCANPLLYGFLSDNFRQSFRKALCLRRGYGVEDADAIEPRPDKSGRPQTTLPTRSCEANGLMQTSRL
Regarding B1, the binding result was “binds”.
